The test has as its target T1, human IL-4 receptor alpha chain (Interleukin-4 receptor subunit alpha, Uniprot #P24394, SEQ ID NO: 12) (human, UniProt P24394 26-232, limits assumed).
T1 construct: also called IL-4RA; human IL-4RA
T1 sequence: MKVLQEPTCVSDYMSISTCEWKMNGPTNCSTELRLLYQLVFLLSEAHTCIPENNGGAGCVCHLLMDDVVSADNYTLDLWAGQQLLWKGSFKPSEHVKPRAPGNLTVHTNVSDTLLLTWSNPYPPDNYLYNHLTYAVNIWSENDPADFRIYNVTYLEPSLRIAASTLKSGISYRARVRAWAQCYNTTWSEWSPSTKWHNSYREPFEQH
Nature of the test: method not stated; target IL-4RA implied by the text.

B1: lipocalin mutein directed against the human IL-4 receptor alpha chain (SEQ ID NO: 6) (designed binder)
chain: HHLLASDEEIQDVSGTWYLKAMTVDSRCPRAVYNSVTPMTLTTLEGGNLEAKFTAQRKGRWQKYKLVLEKTDEPGKYTASGGRHVAYIIRSHVKDHYIFHSEGLCPGQPVPGVWLVGRDPKNNLEALEDFEKAAGARGLSTESILIPRQSETSSPGSA
notes: Mutein of human tear lipocalin; also called IL-4 receptor alpha antagonist
On to B1, for which binding was characterised by a dissociation constant (Kd) of 0.023 nM; the koff (as a rule, the first-order rate constant of dissociation) turned out to be 9.2e-05 s⁻¹; the association rate constant (kon) (in general, the rate constant with which the complex forms) came to 4.1e+06 M⁻¹ s⁻¹.

For the origin of these results see US20170112900A1 (Pieris, published 2017).
